Structures can show the parent of a compound that is named as a salt. Some of the results follow. This data set is noisy: repeats of one test often differ as much as different tests do.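 Human kidney-derived cells stably carry a construct in which eight TEAD-binding elements drive luciferase, measured by luminescence in a drug-repurposing library screen. A hit is any compound whose signal exceeds the plate mean by more than five robust Z scores.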
Test system: HEK293A TEAD-LUC reporter
Assay: TEAD-luciferase reporter activity (YAP activation), robust Z score vs plate; higher = stronger YAP/TEAD activation
Conditions: 24 h

| SMILES | TEAD-luciferase reporter activity (compound concentration: 200 nM) | TEAD-luciferase reporter activity (compound concentration: 2 uM) | TEAD-luciferase reporter activity (compound concentration: 10 uM) |
| --- | --- | --- | --- |
| Cc1cc(/C=C/C#N)cc(C)c1Nc1ccnc(Nc2ccc(C#N)cc2)n1 [Rilpivirine] | inactive: 0.137 | inactive: -2 | inactive: 0.617 |
| CCCn1c(=O)[nH]c(=O)c2[nH]cnc21 [enprofylline] | active: 5.18 | inactive: -0.739 | inactive: -1.19 |
| C#C[C@H]1CC[C@@H](C#N)N1C(=O)CNC1(C)CCN(c2cc(C(=O)O)ccn2)CC1 | inactive: -0.493 | inactive: -0.427 | inactive: 2.42 |
| S=C(S)N1CCCC1 | inactive: -1.98 | inactive: 0.533 | inactive: -3.6 |
| Cc1c(F)cccc1NC(=O)Nc1ccc(Cl)c(S(=O)(=O)[C@H]2CCCNC2)c1O [Danirixin] | inactive: -1.93 | inactive: -0.632 | inactive: 2.63 |
| CNCc1ccc(C)c(NC(=O)c2ccc(Nc3nc(-c4ccccc4)c4ccccc4n3)cc2)c1 | inactive: -0.422 | inactive: -0.443 | inactive: 0.611 |
| COc1ccc(C(=O)/C(Br)=C/C(=O)O)cc1 [Bromebrate sodium] | inactive: -0.877 | inactive: -1.04 | inactive: 0.671 |
| C=C(CC)C(=O)c1ccc(OCC(=O)O)c(Cl)c1Cl | inactive: -0.635 |  | inactive: 1.28 |
| C=C(CC)C(=O)c1ccc(OCC(=O)O)c(Cl)c1Cl [etacrynic acid] |  | inactive: -0.823 |  |
| Cc1cnc(NC(=O)c2cc(Oc3cnc(C(=O)N(C)C)nc3)c3cc(C)oc3c2)cn1 | inactive: 0.638 | inactive: -0.54 | inactive: -1.71 |
| C=C1c2cccc(O)c2C(=O)C2C(=O)[C@]3(O)C(=O)C(C(N)=O)C(=O)[C@@H](N(C)C)[C@@H]3[C@@H](O)[C@H]12 (stereo partly drawn) |  | inactive: 0.351 |  |
| C=C1c2cccc(O)c2C(=O)C2C(=O)[C@]3(O)C(=O)C(C(N)=O)C(=O)[C@@H](N(C)C)[C@@H]3[C@@H](O)[C@H]12 (stereo partly drawn) [Methacycline HCl] | inactive: -1.75 |  | inactive: 1.02 |
| COc1ccccc1OC(=O)CNC(=O)Cc1ccc(C(=O)c2ccc(C)cc2)n1C [amtolmetin guacil] | inactive: -0.834 | inactive: 3.98 | inactive: 2.25 |
| CC(C)(C)NCC(O)COc1ccc(NC(=O)NC2CCCCC2)cc1 (stereo not drawn) [Talinolol] | active: 5.02 | inactive: -1.67 | inactive: 0.557 |
| COc1ccc(C(NC(=O)c2cnc(-c3cccnn3)nc2O)c2ccc(OC)cc2)cc1 | inactive: 0.697 | inactive: -1.14 | inactive: -0.151 |
| C#C[C@]1(O)CCC2C3CCC4=C(CCC(=O)C4)C3CC[C@@]21C (stereo partly drawn) | inactive: -0.781 | inactive: -0.687 | inactive: -0.831 |
| Cc1c(C(=O)Nc2ccc(N3C[C@@H](C)O[C@@H](C)C3)nc2)cccc1-c1ccc(OC(F)(F)F)cc1 [Sonidegib phosphate] | inactive: 2.65 | inactive: -0.652 | inactive: 1.99 |
| Cc1ccc2c(Nc3cccc(Cl)c3)nccc2c1NC(=O)c1csc2c(N)ncnc12 | inactive: -1.28 | inactive: -1.08 | inactive: -0.43 |
| Nc1ncnc2c1nc(Cl)n2C1O[C@H](CO)[C@@H](O)[C@H]1O (stereo partly drawn) | inactive: -1.56 | inactive: 2.2 | inactive: 1.74 |

| SMILES | TEAD-luciferase reporter activity (compound concentration: 200 nM) | TEAD-luciferase reporter activity (compound concentration: 2 uM) | TEAD-luciferase reporter activity (compound concentration: 10 uM) |
| --- | --- | --- | --- |
| CC1=C(/C=C/C(C)=C/C=C/C(C)=C/C=C/C=C(C)/C=C/C=C(C)/C=C/C2=C(C)C(=O)[C@@H](O)CC2(C)C)C(C)(C)C[C@H](O)C1=O [Astaxanthin] | inactive: -0.297 | inactive: -0.88 | inactive: -0.532 |
| CN(C)CC1=C[CH]([Fe][CH]2C=CC=C2)C=C1CNc1ccnc2cc(Cl)ccc12 (stereo not drawn) [Ferroquine] | inactive: -0.944 | inactive: -0.214 | inactive: -1.17 |
| C[C@@]1(c2cc(-c3cncnc3)c(F)cc2F)CCSC(=N)N1 | inactive: 1.13 | inactive: -0.213 | inactive: -0.872 |
| CN1CCc2cccc3c2C1Cc1ccc(O)c(O)c1-3 (stereo not drawn) [Apomorphine hydrochloride hemihydrate] | inactive: 0.291 |  | inactive: 2.95 |
| CN1CCc2cccc3c2C1Cc1ccc(O)c(O)c1-3 (stereo not drawn) [apomorphine, Altea] |  | inactive: -0.97 |  |
| O=C(O)C[C@H](O)C[C@H](O)CCn1c(-c2ccc(F)cc2)nc(C(=O)NCc2cccc(F)c2)c1C1CC1 | inactive: -1.37 | inactive: -0.746 | inactive: -1.79 |
| CN(Cc1ccccc1)C(=O)[C@H](Cc1ccc2ccccc2c1)NC(=O)[C@@H]1CCCN1C(=O)Nc1ccccc1[N+](=O)[O-] | inactive: -2.3 | inactive: -2.18 | inactive: 0.118 |
| O=c1ccn([C@H]2O[C@@H](CO)[C@H](O)[C@@H]2F)c(=O)[nH]1 | inactive: -1.37 | inactive: 0.604 | inactive: -0.254 |
| COc1ccc(OC)c(C(O)CNC(=O)CN)c1 (stereo not drawn) [Pro-Amatine3092-17-9] | inactive: 1.11 |  | inactive: -2.06 |
| COc1ccc(OC)c(C(O)CNC(=O)CN)c1 (stereo not drawn) [midodrine] |  | inactive: -1.02 |  |
| CCCCCCC/C=C/C(=O)NCCSCCC1CCCCC1 | inactive: 1.87 | inactive: -1.04 | inactive: 3.73 |
| CCCS(=O)(=O)N[C@H]1C[C@@H](N(C)c2ncnc3[nH]ccc23)C1 | inactive: 0.0668 | inactive: 0.518 | inactive: 1.17 |
| CC(C)NC(=O)NC1CC2(CCN(C(=O)c3cccc4[nH]ccc34)CC2)Oc2ccccc21 (stereo not drawn) | inactive: -0.529 |  | inactive: -0.884 |
| Nc1nc2c(ncn2COCCO)c(=O)[nH]1 [aciclovir] | inactive: 2.05 | inactive: -1.09 | inactive: -1.11 |
| CCCCCCC(C)NN (stereo not drawn) | inactive: 0.172 | inactive: 1.34 | inactive: 0.937 |
| CCc1nnc(NS(=O)(=O)c2ccc(N)cc2)s1 | inactive: 0.429 | inactive: 0.14 | inactive: 1.72 |
| C[C@H](NC(=O)/C(C#N)=C/c1cccc(Br)n1)c1ccccc1 | inactive: -1.27 | inactive: -0.569 | inactive: 0.758 |
| COc1cccc2c1C(=O)C(C(=O)N(C)c1ccc(C(F)(F)F)cc1)C(=O)N2C (stereo not drawn) [tasquinimod] | inactive: -1.69 | inactive: -1.45 | inactive: -0.111 |
| [O-][n+]1cccc(-c2nc3c(Cl)cccc3cc2[C@@H](Nc2ncnc3cccnc23)C(F)(F)F)c1 | inactive: -0.983 | inactive: -1.26 | inactive: -0.649 |

Laid out differently: entries from further up.
SMILES,TEAD-luciferase reporter activity (compound concentration: 200 nM),TEAD-luciferase reporter activity (compound concentration: 2 uM),TEAD-luciferase reporter activity (compound concentration: 10 uM)
O=C(O)C[C@H](O)C[C@H](O)CCn1c(-c2ccc(F)cc2)nc(C(=O)NCc2cccc(F)c2)c1C1CC1,inactive: -1.37,inactive: -0.746,inactive: -1.79
CN(Cc1ccccc1)C(=O)[C@H](Cc1ccc2ccccc2c1)NC(=O)[C@@H]1CCCN1C(=O)Nc1ccccc1[N+](=O)[O-],inactive: -2.3,inactive: -2.18,inactive: 0.118
Nc1nc2c(ncn2COCCO)c(=O)[nH]1 [aciclovir],inactive: 2.05,inactive: -1.09,inactive: -1.11
[O-][n+]1cccc(-c2nc3c(Cl)cccc3cc2[C@@H](Nc2ncnc3cccnc23)C(F)(F)F)c1,inactive: -0.983,inactive: -1.26,inactive: -0.649

Next part.

| SMILES | TEAD-luciferase reporter activity (compound concentration: 200 nM) | TEAD-luciferase reporter activity (compound concentration: 2 uM) | TEAD-luciferase reporter activity (compound concentration: 10 uM) |
| --- | --- | --- | --- |
| CC(C)(C)C(=O)OCOP(=O)(COCCn1cnc2c(N)ncnc21)OCOC(=O)C(C)(C)C [adefovir dipivoxil] | inactive: -3.61 | inactive: -1.62 | inactive: -1.28 |
| NC(=O)c1c(OCc2c(F)cc(Br)cc2F)nsc1NC(=O)NCCCCN1CCCC1 | inactive: -0.431 | inactive: -2.59 | inactive: -0.455 |
| O=C(O)c1cc2cc(Cc3cccnc3)ccc2o1 [Furegrelate sodium] | inactive: 2.24 | inactive: 0.105 | inactive: 2.78 |
| CCCCCCCC/C=C\CCCCCCCC(=O)O [Oleic Acid] | inactive: -1.17 | inactive: 0.617 | inactive: -0.943 |
| CC12CCC(C1)C(C)(C)C2O (stereo not drawn) | inactive: -0.51 | inactive: -0.563 | inactive: -1.09 |
| CC(=O)OCCC(C)CCC=C(C)C (stereo not drawn) | inactive: -0.0414 | inactive: -0.923 | inactive: -0.752 |
| O=c1oc2cc(O)ccc2s1 | inactive: 0.699 | inactive: 0.0648 | inactive: 1.07 |
| S=C=Nc1ccc(N=C=S)cc1 | inactive: -1.1 | inactive: -0.728 | inactive: -1.63 |
| CCN(CCO)c1nc(-c2ccccc2)c(-c2ccccc2)o1 | inactive: -0.998 | inactive: -0.554 | inactive: 0.282 |
| O=C(c1ccccc1)N1CC2COCC2C1 (stereo not drawn) | inactive: -0.987 | inactive: 0.0459 | inactive: -0.612 |
| O=[N+]([O-])c1ccc(Nc2ccc(N=C=S)cc2)cc1 [amoscanate] | inactive: 0.31 | inactive: -0.444 | inactive: 1.85 |
| C[C@]12CC[C@@H]3c4ccc(O)cc4CC[C@H]3[C@@H]1[C@@H](O)[C@@H](O)[C@@H]2O [Estetrol] | inactive: -0.933 | inactive: 1.19 | inactive: -0.0922 |
| COc1ccc(S(=O)(=O)N2CCN(C(C)c3nc(OC4CCCCC4)c4ccccc4n3)CC2)cc1 (stereo not drawn) | inactive: -0.993 | inactive: -1.04 | inactive: -0.541 |
| O=C(O)c1cc(-c2ccc(Nc3nc4ccc(F)cc4s3)cc2)no1 | inactive: -1.45 | inactive: 0.771 | inactive: 0.159 |
| CCOC(=O)C(=O)Nc1ccc2oc(=O)cc(C)c2c1 | inactive: 0.597 | inactive: -0.286 | inactive: 2.59 |
| N#CC(c1ccnc(OCc2ccc(CN3CCOCC3)cc2)n1)c1nc2ccccc2s1 (stereo not drawn) [Bentamapimod] | inactive: -0.0317 | inactive: -1.36 | inactive: -1.3 |
| Nc1cc(N2CCN(CCP(=O)(O)O)CC2)nc(NC[C@H]2CC[C@H](CNCCCNC3CCCCC3)CC2)n1 [Burixafor] | inactive: -1.59 | inactive: 0.281 | inactive: 0.118 |
| COc1ccccc1-c1csc(Cc2cn3ccccc3n2)n1 | inactive: -1.71 | inactive: -1.29 | inactive: 4.47 |
| COc1cc(C)ccc1OCC(=O)NC1(C(=O)O)Cc2ccccc2C1 | inactive: 1.33 | inactive: -0.593 | inactive: -2.41 |

Reference: the supplement of paper PMC10735217
